Among the data in PubChem BioAssay AID1487 (National Center for Advancing Translational Sciences (NCATS), 2009) are AC50 values, retold here.

This assay can be described thus: qHTS Assay for Modulators of Lamin A Splicing. The following applies: HeLa LMNA splicing GFP/RFP minigene ratio, 48 h. In outline: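 S3 HeLa cells stably expressing lamin A-EGFP splicing minigene plus DsRed2, 600 cells/well, 48 h compound exposure at 37C. Laser-scanning cytometry; analysed as GFP (500-530 nm)/RFP (575-640 nm) total intensity ratio; 0.5% DMSO vehicle.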
For orientation: qHTS replaces the single test concentration by a dilution series.

Setting [1] is: measured here: GFP splicing reporter channel.
[2] abbreviates: measured here: RFP viability control channel.

The list shows a part of the results. These are further read-outs of the screen, such as a control signal, another cell line or another target. No call is given for them. Compounds called inactive in the main read-out are mostly missing here. Words in brackets tell the shape of the fitted curve; partial curves, single points and poor fits give uncertain potencies.

On to `c1ccc(-n2cnc3cc(NCc4cccs4)ccc32)cc1`, for which the AC50 under setting [1] was 35.5 µM [falling, single point] and the AC50 under setting [2] was 35.5 µM [falling, single point].

On to `CCn1c(/C=C\c2ccccc2C)nc2ccccc2c1=O`, for which the AC50 under setting [1] was 0.1 µM [falling, full curve, poor fit].

In the case of `O=C(N/N=C/C1CC=CCC1)c1cc2ccccc2cc1O` (stereo not given), under setting [2], the AC50 was 2 µM [rising, partial curve].

For the molecule `O=C(Nc1nc2c(s1)CCc1ccccc1-2)c1ccco1`, the half-maximal activity concentration (AC50) under setting [2] was 14.1 µM [rising, partial curve].

As for `CN(C)c1cc[n+](CC(=O)N2CCCc3ccccc32)cc1`, the AC50 under setting [1] is 5.62 µM [falling, partial curve, poor fit] and the half-maximal activity concentration (AC50) under setting [2] was 12.6 µM [falling, partial curve, poor fit].

For `COc1cc(Nc2nc(SCc3ccccc3F)nc3ccccc23)cc(OC)c1`, the AC50 under setting [2] was 0.355 µM [rising, partial curve].

For `Cc1cc(C)c2nc3nc(C)cc(C)c3c(N)c2c1`, the AC50 under setting [2] was 22.4 µM [rising, single point].

Take `COc1ccc([N+](=O)[O-])cc1NC(C)C`: the AC50 under setting [2] is 0.00447 µM [falling, full curve, poor fit].

In the case of `COc1ccccc1CNc1nc(-c2ccccc2CN(C)C)nc2ccccc12`, the half-maximal activity concentration (AC50) under setting [1] was 12.6 µM [rising, single point].

For the molecule `COc1nc(NC23CC4CC(CC(C4)C2)C3)nc(OC)n1`, the AC50 is 12.6 µM [rising, partial curve, poor fit] under setting [1] and 22.4 µM [rising, partial curve, poor fit] under setting [2].

As for `CCOC(=O)CSc1cc(C)c(C#N)c2nc3ccccc3n12`, the AC50 is 35.5 µM [rising, single point] under setting [1] and 31.6 µM [rising, partial curve] under setting [2].

Take `COc1ccc(C(O)c2nc3ccccc3n2C)cc1OC` (stereo not given): the AC50 under setting [2] was 2.82 µM [rising, full curve].

As for `Cc1cccc(NC(c2cccc(F)c2)c2ccc3ccc(C)nc3c2O)n1` (stereo not given), the AC50 under setting [2] was 2.51 µM [rising, partial curve, poor fit].

`NCCNCCNCCN`: the AC50 by setting is: under setting [1], 12.6 µM [falling, partial curve]; under setting [2], 0.501 µM [falling, single point].

For the molecule `CCOc1ccc(CC(=O)NNC(=S)NC2CCCCC2)cc1OCC`, the AC50 is 11.2 µM [rising, single point] under setting [1] and 11.2 µM [rising, single point] under setting [2].

As for `NC(=O)CSc1nc2ccc(NC(=O)COc3ccccc3)cc2s1`, the AC50 under setting [2] is 0.2 µM [falling, full curve, poor fit].

Consider `CN(C)c1cc[n+](CC(=O)Nc2c(Cl)cc(Cl)cc2Cl)cc1`, for which the concentration at half-maximal activity (AC50) under setting [2] was 0.447 µM [rising, full curve].

Regarding `O=C(Cn1nnc(-c2ccccc2Cl)n1)N1CCN(S(=O)(=O)c2ccc(Cl)cc2)CC1`, the AC50 under setting [2] is 35.5 µM [rising, single point].

As to `CC(C)=C1C2CCC1C(C(=O)Nc1sc(C)c(-c3ccc(C(C)C)cc3)c1C(N)=O)C2C(=O)O` (stereo not given), the AC50 under setting [2] is 17.8 µM [rising, partial curve, poor fit].

`COc1ccc2cc3cc(C(=O)NCc4cccs4)oc3nc2c1`: the AC50 under setting [1] is 15.8 µM [rising, partial curve, poor fit].

Consider `CC1=CC(=O)C(C(C)C)=C/C1=N\OC(=O)c1cccc2nc(C)oc12`, for which the AC50 under setting [2] was 12.6 µM [rising, single point].

Consider `Cc1ccccc1NC(=O)c1sc(NC(=O)COc2ccccc2)c(C#N)c1C`, for which, under setting [2], the AC50 was 35.5 µM [rising, single point].

As for `C=CCNc1ncnc2c1[nH]c1ccccc12`, the half-maximal activity concentration (AC50) under setting [2] is 12.6 µM [rising, partial curve].

In the case of `COC(=O)c1ccccc1NC(=O)CSc1nnc(-c2ccncc2)o1`, the AC50 under setting [2] is 0.0112 µM [rising, full curve, poor fit].

In the case of `CC(=O)c1cccc(NC(=O)CSCc2ccc(Br)cc2)c1`, the AC50 under setting [2] is 20 µM [rising, single point].

For `COc1ccc(Nc2nc(N3CCCC3)c3ccccc3n2)cc1`, under setting [2], the half-maximal activity concentration (AC50) is 12.6 µM [rising, partial curve].

As to `O=S(=O)(c1cccc(S(=O)(=O)N2CCC(Cc3ccccc3)CC2)c1)N1CCOCC1`, under setting [2], the AC50 is 15.8 µM [rising, single point].

Consider `Nc1nc(-c2ccccc2)nn1S(=O)(=O)c1ccccc1`, for which the AC50 under setting [1] was 0.282 µM [rising, full curve, poor fit].

`COc1ccc(COc2cc(-c3cccc(OC)c3)nc3ccc(N)cc23)cc1`: under setting [2], the AC50 is 5.62 µM [rising, single point].

Take `Cc1ccc(/C(=C/CN2CCCC2)c2ccccn2)cc1`: the AC50 under setting [1] is 8.91 µM [rising, partial curve, poor fit] and the AC50 under setting [2] was 4.47 µM [rising, partial curve, poor fit].

Regarding `CCS(=O)(=O)c1ccc2oc(SCC(=O)NCCC3=CCCCC3)nc2c1`, the AC50 under setting [2] is 14.1 µM [rising, single point].

Turning to `COc1ccc(N2CCN(C(=O)C(C)(C)Oc3ccc(Cl)cc3)CC2)cc1`, the half-maximal activity concentration (AC50) under setting [2] was 35.5 µM [rising, single point].

For the molecule `CCc1n[nH]c2c1/C(=N\O)CC(c1ccccc1)C2` (stereo not given), the AC50 under setting [2] was 11.2 µM [rising, partial curve].

Regarding `COc1cc(-c2ccno2)ccc1S(=O)(=O)N1CCN(c2cccc(Cl)c2)CC1`, the AC50 under setting [2] is 0.00447 µM [rising, full curve, poor fit].

For `Cc1cc(C)n(CC(=O)c2ccccc2)c(=O)c1C#N`, the half-maximal activity concentration (AC50) under setting [2] is 0.00316 µM [falling, full curve, poor fit].

In the case of `CC(C)OC(=O)c1cc(NC(=O)C2C3CCC(O3)C2C(=O)O)cc(C(=O)OC(C)C)c1` (stereo not given), the AC50 runs as follows: under setting [1], 35.5 µM [rising, single point]; under setting [2], 35.5 µM [rising, single point].

In the case of `COC(=O)C(C)(C)ONC(=O)Nc1ccc(Br)cc1`, the half-maximal activity concentration (AC50) under setting [2] is 35.5 µM [rising, single point].

`O=C(c1ccc(Br)o1)N(Cc1ccccc1)Cc1ccccc1`: under setting [2], the AC50 was 22.4 µM [rising, single point].

Regarding `CCn1c(SC)nc2c([nH]c3ccccc32)c1=O`, the AC50 under setting [1] is 0.00631 µM [falling, full curve, poor fit].

On to `Cc1ccc(S(=O)(=O)N(C)C)cc1NC(=O)c1cncc(Br)c1`, for which the AC50 is 35.5 µM [rising, single point] under setting [1] and 31.6 µM [rising, single point] under setting [2].

In the case of `O=C(CNC(=O)c1ccc2c(c1)OCO2)N/N=C(Br)/C=C/c1ccccc1`, under setting [2], the AC50 was 3.98 µM [rising, full curve].

Take `CCOC(=O)c1c(S(=O)(=O)N2CCC(C(=O)Nc3ccc(C)cn3)CC2)c(C)n(C)c1C`: under setting [1], the AC50 was 0.00501 µM [rising, full curve, poor fit].

In the case of `Cc1ccc([N+](=O)[O-])cc1NCC(=O)NN`, the AC50 under setting [2] is 35.5 µM [rising, single point].

Regarding `CCc1ccc(C(C)NC(=O)/C(C#N)=C\c2cn[nH]c2-c2ccccc2)cc1` (stereo not given), the AC50 runs as follows: under setting [1], 11.2 µM [rising, partial curve]; under setting [2], 25.1 µM [rising, single point].

In the case of `CC(C)c1ccc(C2NC(=S)NC3=C2C(=O)CCC3)cc1` (stereo not given), under setting [2], the AC50 is 5.62 µM [rising, partial curve, poor fit].

In the case of `CC(C)Cn1c(SC(C)C(=O)Nc2ccc3c(c2)OCCO3)nc2ccccc2c1=O` (stereo not given), the AC50 was 12.6 µM [rising, single point] under setting [1] and 11.2 µM [rising, single point] under setting [2].

For the molecule `CNC(=O)COC(=O)CCC(=O)c1cccs1`, the AC50 by setting is: under setting [1], 0.251 µM [falling, full curve]; under setting [2], 0.501 µM [falling, full curve].

For `CCOc1cc(C2C3=C(CCCC3=O)Nc3ccc4ncccc4c32)ccc1O` (stereo not given), the AC50 under setting [2] was 0.00398 µM [falling, full curve, poor fit].

On to `COc1ccccc1NC(=S)NCCSc1ccc(Cl)cc1`, for which the AC50 is 22.4 µM [rising, single point] under setting [1] and 35.5 µM [rising, single point] under setting [2].

For `CC1CCCCN1C(=O)CSc1nc2ccccc2nc1Cc1ccccc1` (stereo not given), the AC50 under setting [1] is 12.6 µM [falling, single point].

For the molecule `CCOc1ccc(N2C(=O)c3[nH]nc(-c4ccccc4)c3C2c2ccc(O)c(OC)c2)cc1` (stereo not given), under setting [1], the AC50 was 35.5 µM [falling, partial curve, poor fit].

Take `COC(=O)c1cccc(NC(=O)CN2CCN(c3ccc(OC)cc3)CC2)c1`: the AC50 under setting [2] was 22.4 µM [rising, single point].

With `Cc1cccc(Nc2ncnc3c2cnn3C)c1`, the AC50 under setting [2] is 0.316 µM [falling, full curve, poor fit].

As to `O=c1c2[nH]c3ccc(F)cc3c2ncn1CCN1CCN(Cc2ccccc2)CC1`, the AC50 under setting [2] was 5.62 µM [rising, partial curve, poor fit].

Consider `CCN(CC(=O)NC1CCS(=O)(=O)C1)C(=O)/C=C/c1cccs1` (stereo not given), for which, under setting [1], the AC50 was 35.5 µM [falling, single point].

In the case of `COc1cc(C(=O)N2CCN(S(=O)(=O)c3ccc(C)cc3)CC2)ccc1OCc1c(C)noc1C`, the AC50 was 8.91 µM [rising, partial curve] under setting [1] and 14.1 µM [rising, single point] under setting [2].

With `Cc1ccc(N/C=C(\[N+](=O)[O-])S(=O)(=O)c2ccccc2)cc1`, the AC50 under setting [1] is 7.94 µM [falling, partial curve, poor fit].

Consider `COc1ccc(C(C(=O)NC2CCCCC2)N(C(=O)CCl)c2ccc(Cl)cc2)cc1` (stereo not given), for which the AC50 is 35.5 µM [falling, single point] under setting [1] and 35.5 µM [falling, single point] under setting [2].

On to `c1ccc2c(c1)[nH]c1c(N3CCCC3)ncnc12`, for which the AC50 under setting [2] is 15.8 µM [rising, single point].

Regarding `COc1ccc(NC(=O)CSc2ccc(F)cc2)cc1S(=O)(=O)N1CCCCC1`, the half-maximal activity concentration (AC50) under setting [2] was 14.1 µM [rising, single point].

A word on the AC50: it is the midpoint of the concentration-response curve, whichever way the signal moves.
